Experimental data: PubChem BioAssay AID686937 (Drosophila RNAi Screening Center, 2013)
The screen tested about 23,000 reagents; this is an unselected part of those with a known target gene and a result. 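Reduced-secretion tags in replicate 1 do not always agree with the z-scores; no criterion for assigning the tags was given.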 Reagents against one gene are numbered here. A plus sign joins genes that one reagent is predicted to hit. Further read-outs or replicates are left out here. The record does not give: the amount of reagent.

Assay: 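Genes whose loss weakens secretory pathway function in fly cells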 (primary screen)
System: Drosophila S2 cells expressing secreted horseradish peroxidase
Knock-down reagent: long dsRNA against Drosophila genes
Time to read-out: about 5.5 days (5 days dsRNA, then 12 h reporter induction)
Conditions: reporter expression induced after 5 days of dsRNA, read 12 h later; inducer not stated
Detection: 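After 5 days of dsRNA and 12 h of reporter induction, medium peroxidase read by chemiluminescence and scored as per-plate z-score; higher values mean more reporter released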
Reading the numbers: z-score: higher = more reporter secreted into medium

| target | dsRNA no. | z-score, replicate 1 |
| --- | --- | --- |
| flw (flapwing) | 1 | 0.07 |
| flw (flapwing) | 2 | 0.41 |
| Dis3l2 (Dis3 like 3'-5' exoribonuclease 2) | 1 | 0.34 |
| CG15005 | 1 | 0.49 |
| Ten-a (Tenascin accessory) | 1 | 0.52 |
| Ten-a (Tenascin accessory) | 2 | -2.93 |
| Ten-a (Tenascin accessory) | 3 | 0.36 |
| Ten-a (Tenascin accessory) | 4 | 0.43 |
| Ten-a (Tenascin accessory) | 5 | 0.32 |
| Ten-a (Tenascin accessory) | 6 | 0.28 |
| Ten-a (Tenascin accessory) | 7 | 0.46 |
| Ten-a (Tenascin accessory) | 8 | 1.01 |
| bug (bunker gear) | 1 | 0.43 |
| Pepck2 (Phosphoenolpyruvate carboxykinase 2) | 1 | 0.51 |
| alphaCOP (Coat Protein (coatomer) alpha) | 1 | 0.01 |
| CG3764 | 1 | 0.22 |
| CG7896 | 1 | 0.52 |
| Oli (Olig family) | 1 | 0.29 |
| CG12994 | 1 | 0.36 |
| CG12994 | 2 | -0.45 |
| Ace (Acetylcholine esterase) | 1 | 0.67 |
| Ace (Acetylcholine esterase) | 2 | 0.1 |
| CG12343 | 1 | 0.1 |
| JYalpha (retired record) + JYalpha | 1 | -0.41 |
| Wdr33 (WD repeat domain 33) | 1 | -0.63 |
| Gld2 (GLD2 poly(A) polymerase) | 1 | -2.22 |
| CG44098 | 1 | 0.38 |
| CG44098 | 2 | 0.16 |
| CG44098 | 3 | 0.21 |
| CadN2 (Cadherin-N2) | 1 | 0.03 |
| CadN2 (Cadherin-N2) | 2 | 0.27 |
| CadN2 (Cadherin-N2) | 3 | 0.14 |
| CG7194 | 1 | 0.27 |
| CG6927 | 1 | 0.27 |
| CG12567 | 1 | 0.52 |
| CG15212 | 1 | 0.31 |
| CG17994 | 1 | 0.32 |
| lncRNA:CR32160 (long non-coding RNA:CR32160) | 1 | -0.66 |
| CG30109 + CG30108 | 1 | -0.39 |
| CG8441 | 1 | 0.17 |
| Sdb (SAXO downstream of blistered) | 1 | 0.18 |
| Sdb (SAXO downstream of blistered) | 2 | 0.32 |
| Sdb (SAXO downstream of blistered) | 3 | 0.48 |
| Mlp60A (Muscle LIM protein at 60A) | 1 | 0.49 |
| Mlp60A (Muscle LIM protein at 60A) | 2 | -0.12 |
| Mlp60A (Muscle LIM protein at 60A) | 3 | 0.15 |
| CG1637 | 1 | 0.23 |
| CG1637 | 2 | 0.29 |
| CG1637 | 3 | 0.27 |
| ato (atonal) | 1 | -0.09 |
| plh (pasang lhamu) | 1 | 0.19 |
| CG9897 + asRNA:CR42742 | 1 | 0.15 |
| Tom70 (Translocase of outer membrane 70) | 1 | 0 |
| CG32669 | 1 | 0.05 |
| pch2 (pachytene checkpoint 2) | 1 | 0.07 |
| RpS3A (Ribosomal protein S3A) | 1 | -2.16 |
| CG11714 | 1 | -0.51 |
| Mnn1 (Menin 1) | 1 | -0.01 |
| brv1 (brivido-1) | 1 | 0.22 |
| Cypl (Cyclophilin-like) | 1 | 0.46 |
| Or45b (Odorant receptor 45b) | 1 | 0.36 |
| CG5916 | 1 | 0.31 |
| Zasp67 (Z band alternatively spliced PDZ-motif protein 67) | 1 | 0.4 |
| Nfs1 (Nfs1 cysteine desulfurase) | 1 | -0.02 |
| scf (supercoiling factor) | 1 | 0.15 |
| spas (spastin) | 1 | 0.51 |
| unk (unkempt) | 1 | 0.38 |
| Gycalpha99B (Guanylyl cyclase alpha-subunit at 99B) | 1 | 0.25 |
| dpr11 (defective proboscis extension response 11) | 1 | 0.11 |
| dpr11 (defective proboscis extension response 11) | 2 | 0.13 |
| dpr11 (defective proboscis extension response 11) | 3 | -0.03 |
| CG13843 | 1 | -0.74 |
| beta'COP (Coat Protein (coatomer) beta') | 1 | -6.57 |
| bcn92 | 1 | 0.15 |
| AlaRS-m (Alanyl-tRNA synthetase, mitochondrial) | 1 | 0.26 |
| Act88F (Actin 88F) | 1 | -0.1 |
| CG7214 | 1 | -8.4 |
| CG7214 | 2 | 0.19 |
| CG13639 | 1 | 0.39 |
| Rif1 (Rap1 interacting factor 1) | 1 | -0.14 |
| Vdup1 (Vitamin D[[3]] up-regulated protein 1) | 1 | 0.51 |
| CG13215 | 1 | 0.42 |
